{"source": "PubChem BioAssay AID602196 (INSERM, 2012)", "aim": "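Knock-downs that protect lung cancer cells from cisplatin or sensitise them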", "cells": "human A549 lung cancer cells", "reagent": "siRNA pair against human genes", "timing": "48 h transfection before cisplatin; time from cisplatin to read-out not stated", "challenge": "cisplatin at a dose killing half of control-siRNA cells; exact dose and duration not given", "detection": "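Shift in cisplatin death relative to control siRNA, from -50 (all cells die) to +50 (no cells die); siRNAs harmful on their own scored 0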", "scale": "two-siRNA summed score (-2 to +2): higher = both siRNAs protect from cisplatin killing; -2 means both sensitise", "call rule": "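siRNAs harmful alone (LDH or WST-1) get 0; others get +1 for less and -1 for more cisplatin killing; genes are active when the two siRNAs give the same sign, summing to ±2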", "calls": "active = both siRNAs shift cisplatin killing the same way; inactive = no consistent shift, or siRNA harmful alone", "note": "In all, the deposit lists about 23,000 reagents; shown is a part drawn at random. 455 of them (2%) count as active. 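Active includes both protection and sensitisation; some change values fall well beyond the stated -50 to +50 range.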 The numbers tell different reagents against one gene apart. Further read-outs or replicates are left out here. Not stated in the record: the amount of reagent."}
{"gene": "FUT2", "reagent no.": 1, "two-siRNA summed score (-2 to +2)": 1, "call": "inactive"}
{"gene": "CNDP2", "reagent no.": 1, "two-siRNA summed score (-2 to +2)": 0, "call": "inactive"}
{"gene": "LOC400785", "reagent no.": 1, "two-siRNA summed score (-2 to +2)": 0, "call": "inactive"}
{"gene": "MT1E", "reagent no.": 1, "two-siRNA summed score (-2 to +2)": -1, "call": "inactive"}
{"gene": "RPS2", "reagent no.": 1, "two-siRNA summed score (-2 to +2)": 0, "call": "inactive"}
{"gene": "LOC440855", "reagent no.": 1, "two-siRNA summed score (-2 to +2)": 2, "call": "active"}
{"gene": "GLRB", "reagent no.": 1, "two-siRNA summed score (-2 to +2)": -1, "call": "inactive"}
{"gene": "MCL1", "reagent no.": 1, "two-siRNA summed score (-2 to +2)": -1, "call": "inactive"}
{"gene": "PLCL2", "reagent no.": 1, "two-siRNA summed score (-2 to +2)": 0, "call": "inactive"}
{"gene": "AQP4-AS1", "reagent no.": 1, "two-siRNA summed score (-2 to +2)": 0, "call": "inactive"}
{"gene": "ARHGEF25", "reagent no.": 1, "two-siRNA summed score (-2 to +2)": 0, "call": "inactive"}
{"gene": "KMT2A", "reagent no.": 1, "two-siRNA summed score (-2 to +2)": -1, "call": "inactive"}
{"gene": "KMT2A", "reagent no.": 2, "two-siRNA summed score (-2 to +2)": 0, "call": "inactive"}
{"gene": "CABP4", "reagent no.": 1, "two-siRNA summed score (-2 to +2)": 1, "call": "inactive"}
{"gene": "TTF1", "reagent no.": 1, "two-siRNA summed score (-2 to +2)": 0, "call": "inactive"}
{"gene": "CRY1", "reagent no.": 1, "two-siRNA summed score (-2 to +2)": 2, "call": "active"}
{"gene": "CEP126", "reagent no.": 1, "two-siRNA summed score (-2 to +2)": 0, "call": "inactive"}
{"gene": "LOC400807", "reagent no.": 1, "two-siRNA summed score (-2 to +2)": 0, "call": "inactive"}
{"gene": "KIAA0186", "reagent no.": 1, "two-siRNA summed score (-2 to +2)": 0, "call": "inactive"}
{"gene": "B3GNT7", "reagent no.": 1, "two-siRNA summed score (-2 to +2)": 0, "call": "inactive"}
{"gene": "LOC127540", "reagent no.": 1, "two-siRNA summed score (-2 to +2)": 0, "call": "inactive"}
{"gene": "NVL", "reagent no.": 1, "two-siRNA summed score (-2 to +2)": 0, "call": "inactive"}
{"gene": "RNF112", "reagent no.": 1, "two-siRNA summed score (-2 to +2)": 0, "call": "inactive"}
{"gene": "FOXN2", "reagent no.": 1, "two-siRNA summed score (-2 to +2)": 2, "call": "active"}
{"gene": "MYO10", "reagent no.": 1, "two-siRNA summed score (-2 to +2)": 0, "call": "inactive"}
{"gene": "EGLN3", "reagent no.": 1, "two-siRNA summed score (-2 to +2)": 1, "call": "inactive"}
{"gene": "COG7", "reagent no.": 1, "two-siRNA summed score (-2 to +2)": 0, "call": "inactive"}
{"gene": "LOC442666", "reagent no.": 1, "two-siRNA summed score (-2 to +2)": 1, "call": "inactive"}
{"gene": "PCK2", "reagent no.": 1, "two-siRNA summed score (-2 to +2)": 1, "call": "inactive"}
{"gene": "LOC440745", "reagent no.": 1, "two-siRNA summed score (-2 to +2)": 0, "call": "inactive"}
{"gene": "ERVK-6", "reagent no.": 1, "two-siRNA summed score (-2 to +2)": 0, "call": "inactive"}

Laid out differently: entries from further up
| gene | reagent no. | two-siRNA summed score (-2 to +2) | call |
| --- | --- | --- | --- |
| CNDP2 | 1 | 0 | inactive |
| LOC400785 | 1 | 0 | inactive |
| MT1E | 1 | -1 | inactive |
| RPS2 | 1 | 0 | inactive |
